This is an account of results in PMC6617459.

Assay [1] deals with T1, Myc-tagged Derlin-1 (human (HeLa cDNA)) (UniProt Q9BUN8).
T1 sequence: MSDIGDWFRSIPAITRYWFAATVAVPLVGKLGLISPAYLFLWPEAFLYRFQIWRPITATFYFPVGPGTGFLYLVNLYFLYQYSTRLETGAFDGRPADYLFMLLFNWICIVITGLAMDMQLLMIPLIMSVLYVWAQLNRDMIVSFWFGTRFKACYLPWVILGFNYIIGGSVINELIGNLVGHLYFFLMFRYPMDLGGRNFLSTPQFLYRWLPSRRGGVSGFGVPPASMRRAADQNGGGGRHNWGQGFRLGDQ
The assay is described as follows: co-IP; HeLa^(FcRn+US11 Q192L) cells (US11 Q192L in place of wild-type US11), transfected with Myc-tagged Derlin-1 for 48 h; anti-FLAG or anti-Myc antibody; western blot.

In assay [2] the target is HA-tagged HCMV US11 Q192L (HCMV AD169). The assay is described as follows: co-IP; wild-type US11 or US11 Q192L precipitated, TMEM129 detected (Supplementary Fig. 8a); cells and antibodies not told in the text shown.

No constants are given. Whether binding was seen depends on the method and setting. Binding seen in cells or lysates may run through a third protein. For some assays here: Where a sequence is shown, tags or fusion partners need not be part of it.

Regarding HA-tagged HCMV US11 Q192L, the binding entry in assay [1] is “no binding”.

B1: endogenous E3 ligase TMEM129 (enzyme, UniProt A0AVI4 1-362)
chain: MDSPEVTFTLAYLVFAVCFVFTPNEFHAAGLTVQNLLSGWLGSEDAAFVPFHLRRTAATLLCHSLLPLGYYVGMCLAASEKRLHALSQAPEAWRLFLLLAVTLPSIACILIYYWSRDRWACHPLARTLALYALPQSGWQAVASSVNTEFRRIDKFATGAPGARVIVTDTWVMKVTTYRVHVAQQQDVHLTVTESRQHELSPDSNLPVQLLTIRVASTNPAVQAFDIWLNSTEYGELCEKLRAPIRRAAHVVIHQSLGDLFLETFASLVEVNPAYSVPSSQELEACIGCMQTRASVKLVKTCQEAATGECQQCYCRPMWCLTCMGKWFASRQDPLRPDTWLASRVPCPTCRARFCILDVCTVR
For the molecule B1, the binding result in assay [2] is listed as “no binding”.
